Experiment in all cases: peptide or protein array; functional protein microarrays (AtPMA-5000 and AtPMA-10000, about 15,000 Arabidopsis proteins) probed with 150 ul purified ILK1-V5 in solution for 1.5 h with 1% BSA, 5 mM MgCl2 and MnCl2; detected with Cy5-conjugated anti-V5 antibody; three probe arrays against two control arrays without probe; one-sided t-test, 5% significance, FDR; both purified
For experiment [1], the target named is HAK5 potassium transporter (Arabidopsis).
Experiment [2] has as its target KUP5 potassium transporter (Arabidopsis).
The target in a further experiment is MEKK19 (Arabidopsis).

These are yes or no findings as the source states them, for the method shown. For part of these data: Binding can be weak; no strength is given. Sequences can lack the tags named with a protein.

B1: ILK1-V5 (integrin-linked kinase 1, Arabidopsis) (enzyme, UniProt F4IS56 1-479, looked up)
chain: MENITAQLKRGISRQFSTGSIRRTLSRQFTRQSSLDPRRTNMRFSFGRQSSLDPIRRSPDSSKSDDEPHMSVPENLDSTMQLLFMASKGDVRGIEELLDEGIDVNSIDLDGRTALHIAACEGHLGVVKALLSRRANIDARDRWGSTAAADAKYYGNLDVYNLLKARGAKVPKTRKTPMTVSNPREVPEYELNPLEVQVRKSDGISKGAYQVAKWNGTRVSVKILDKDSYSDPERINAFRHELTLLEKVRHPNVIQFVGAVTQNIPMMIVVEYNPKGDLSVYLQKKGRLSPSKALRFALDIARGMNYLHECKPDPIIHCDLKPKNILLDRGGQLKISGFGMIRLSKISQDKAKVANHKAHIDLSNYYIAPEVYKDEIFDLRVDAHSFGVILYEITEGVPVFHPRPPEEVARMMCLEGKRPVFKTKSRSYPPDIKELIEKCWHPEAGIRPTFSEIIIRLDKIVANCSKQGWWKDTFKFPWK
notes: ILK1, integrin-linked kinase 1, a pseudokinase of the Raf-like MAP3K family, Arabidopsis; also called purified ILK1-V5 protein; source: purified as described previously (Brauer et al., 2014, 2016); purity validated by mass spectrometry
On to B1, for which the binding entry in experiment [1] was “no binding”; in experiment [2] it was “binds”; with MEKK19 (Arabidopsis), “binds”.

Values taken from paper PMC9403797, “Back From the Dead: The Atypical Kinase Activity of a Pseudokinase Regulator of Cation Fluxes During Inducible Immunity” (Frontiers in Plant Science, 2022).
